Laboratory results: PubChem BioAssay AID504808 (Drosophila RNAi Screening Center, 2011)

- Aim: 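Chromatin factors that keep E2F targets switched off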 (primary screen)
- System: Drosophila S2 cells
- Knock-down reagent: long dsRNA against Drosophila genes
- Measured: 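Firefly luciferase driven by E2F sites, normalised to Renilla luciferase on the same minimal promoter, measured by plate reader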
- Reading the numbers: E2F firefly: higher = more E2F reporter activity; Renilla normaliser: higher = more normaliser reporter signal
- Active means: 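Called active if the normalised E2F reporter went up by over 50%; the cutoff is arbitrary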
The screen tested about 21,000 reagents; shown is an unselected part of those that have a named target and a result. Of all reagents, 18 (0.084%) were called active. 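Raw counts without plate normalisation, one of two replicates; the ratio scores behind the calls were not deposited.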 A plus sign joins genes that one reagent is predicted to hit. The record does not give: the amount of reagent, the time to read-out.

gene | amplicon | E2F firefly, rep 1 | Renilla normaliser, rep 1 | Call
AdipoR | DRSC15767 | 60512 | 3642 | inactive
Syn | DRSC16876 | 1.26e5 | 6524 | inactive
CG3776 | DRSC04417 | 1.00e5 | 4177 | inactive
Pld3 | DRSC03167 | 77882 | 3406 | inactive
CG5478 | DRSC15814 | 1.22e5 | 6251 | inactive
CG10417 | DRSC04846 | 80724 | 3487 | inactive
Obp19b | DRSC20536 | 1.43e5 | 6356 | inactive
CG13460 | DRSC10007 | 1.50e5 | 8388 | inactive
CG13135 | DRSC02232 | 1.58e5 | 5551 | inactive
Dpy-30L2 | DRSC08205 | 98739 | 4175 | inactive
Or43a | DRSC07485 | 1.65e5 | 5197 | inactive
Spt5 | DRSC07556 | 2.05e5 | 5605 | inactive
mRpL2 | DRSC10896 | 1.03e5 | 6962 | inactive
CG5608 | DRSC15841 | 80412 | 3192 | inactive
Trm1 | DRSC02951 | 84391 | 3735 | inactive
beta-Spec | DRSC20311 | 2.00e5 | 14547 | inactive
Tpst | DRSC18989 | 86564 | 3842 | inactive
Tpst | DRSC19696 | 94795 | 4486 | inactive
Tpst | DRSC19723 | 1.34e5 | 6109 | inactive
Tpst | DRSC19724 | 3688 | 228 | inactive
CG7985 | DRSC14128 | 62219 | 3536 | inactive
Prdm13 | DRSC09970 | 1.04e5 | 3956 | inactive
SerRS | DRSC00496 | 93686 | 3643 | inactive
Nepl15 | DRSC15630 | 73111 | 4005 | inactive
ced-6 | DRSC07591 | 1.58e5 | 4804 | inactive
Edg78E | DRSC11863 | 1.29e5 | 6611 | inactive
CG6765 | DRSC10706 | 1.06e5 | 3976 | inactive
CG14968 | DRSC08427 | 93614 | 3445 | inactive
CG10237 | DRSC02029 | 93378 | 3398 | inactive
CG31546 | DRSC12317 | 59643 | 2983 | inactive
Listericin | DRSC07334 | 1.01e5 | 4067 | inactive
CG9114 | DRSC20155 | 1.43e5 | 4883 | inactive
fs(1)M3 | DRSC18381 | 7883 | 744 | inactive
CG17974 | DRSC04299 | 99914 | 4091 | inactive
CG12438 | DRSC02167 | 1.36e5 | 4760 | inactive
HHEX | DRSC16186 | 1.15e5 | 6696 | inactive
CG15534 | DRSC15070 | 1.22e5 | 6780 | inactive
Ppat-Dpck | DRSC09744 | 74332 | 3460 | inactive
CAHbeta | DRSC14449 | 80936 | 3748 | inactive
CG15743 | DRSC19709 | 1.25e5 | 5942 | inactive
crok | DRSC02593 | 1.10e5 | 4815 | inactive
omd | DRSC16507 | 1.03e5 | 236 | inactive
CG1494 | DRSC20509 | 1.35e5 | 7088 | inactive
Rab3-GEF | DRSC19954 | 2.26e5 | 6112 | inactive
Rab3-GEF | DRSC19955 | 2.26e5 | 5137 | inactive
Rab3-GEF | DRSC19956 | 1.25e5 | 4727 | inactive
Pde1c | DRSC02421 | 1.46e5 | 5170 | inactive
Pde1c | DRSC02422 | 1.44e5 | 4641 | inactive
Pde1c | DRSC02423 | 1.50e5 | 4649 | inactive
Pde1c | DRSC02424 | 1.65e5 | 5152 | inactive
Pde1c | DRSC02425 | 85011 | 3982 | inactive
Pde1c | DRSC02426 | 82279 | 3748 | inactive
Acp53C14a | DRSC07224 | 1.49e5 | 5118 | inactive
CG15386 + CG42371 | DRSC00400 | 1.71e5 | 6248 | inactive
Vha44 | DRSC07572 | 76255 | 3375 | inactive
Vha44 | DRSC07573 | 1.33e5 | 5397 | inactive
Cog4 | DRSC03057 | 86805 | 3436 | inactive
Tsf3 | DRSC06849 | 75470 | 3399 | inactive
tyn | DRSC20652 | 1.50e5 | 7843 | inactive
AIMP3 | DRSC04500 | 1.11e5 | 4218 | inactive
speck | DRSC04608 | 82218 | 3309 | inactive
CG12935 + Nop10 | DRSC07025 | 1.33e5 | 5183 | inactive
melt | DRSC11367 | 1.05e5 | 4131 | inactive
CG11790 | DRSC14390 | 67044 | 4353 | inactive
P5CDh1 | DRSC11801 | 78816 | 3838 | inactive
CG42579 | DRSC20391 | 81093 | 2595 | inactive
CG17801 | DRSC15273 | 1.27e5 | 6097 | inactive
CG7099 | DRSC03006 | 81433 | 3367 | inactive
AsnS | DRSC11468 | 88187 | 3728 | inactive
Bgb | DRSC08148 | 65166 | 3554 | inactive
mEFTu2 | DRSC06163 | 86209 | 3083 | inactive
CG15594 | DRSC12280 | 1.40e5 | 6303 | inactive
CG12902 | DRSC06217 | 1.30e5 | 4635 | inactive
ppk5 | DRSC11492 | 81904 | 3653 | inactive
Osi4 | DRSC12134 | 1.27e5 | 6486 | inactive
alpha-Est8 | DRSC12620 | 1.36e5 | 6379 | inactive
CG15143 | DRSC02444 | 1.10e5 | 5244 | inactive
DppIII | DRSC16241 | 1.20e5 | 5471 | inactive
Os-C | DRSC16778 | 1.32e5 | 6786 | inactive
Exn | DRSC09673 | 74567 | 3666 | inactive
Exn | DRSC10077 | 1.61e5 | 8322 | inactive
Gem2 | DRSC09721 | 73823 | 3804 | inactive
Mst84Dc | DRSC12599 | 1.39e5 | 6335 | inactive
Sgf29 | DRSC04076 | 84567 | 3677 | inactive

Records listed so far whose gene name starts with D or d (2):
gene | amplicon | E2F firefly, rep 1 | Renilla normaliser, rep 1 | Call
Dpy-30L2 | DRSC08205 | 98739 | 4175 | inactive
DppIII | DRSC16241 | 1.20e5 | 5471 | inactive
